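A panel of P. falciparum strains inside erythrocytes is exposed to compounds for three days, then a DNA-binding dye reports the amount of parasite DNA. Each compound was titrated across a series from about 0.000037 to 29 µM. The number is the fitted AC50, the concentration giving a half-maximal change in signal; a lower value means higher potency, whether the curve shows a decrease or an increase. Calls follow the curve class and fit quality: every row here is inconclusive, covering signal-raising curves and weak, poorly fitted, partial or highest-dose-only inhibition curves.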

Values are in nM. All entries here are filed as inconclusive. These entries are mostly ones the record files as inconclusive; other results of the assay are not listed here. Potencies fitted to partial, single-point or poorly fitting curves are rough. Some entries filed as inconclusive have a full curve. The first word of each remark tells which way the curve ran; it can be opposite to the aim of the assay.

| SMILES | tested on / at | Potency (nM) | curve as filed |
|---|---|---|---|
| `Cc1cc(=O)oc2cc(O)ccc12` | AS120 | 1585 | inhibitor, single point |
| `Cc1cc(=O)oc2cc(O)ccc12` | CP265 | 1259 | inhibitor, single point |
| `Cc1cc(=O)oc2cc(O)ccc12` | CP262 | 4548 | activator, single point |
| `Cc1cc(=O)oc2cc(O)ccc12` | CP238 | 1585 | inhibitor, single point |
| `Cc1cc(=O)oc2cc(O)ccc12` | CP335 | 7208 | inhibitor, partial curve, poor fit |
| `Cc1cc(=O)oc2cc(O)ccc12` | SC27B | 1585 | inhibitor, single point |
| `Cc1cc(=O)oc2cc(O)ccc12` | PC49 | 1585 | inhibitor, single point |
| `Cc1cc(=O)oc2cc(O)ccc12` | N140 | 1585 | inhibitor, single point |
| `Cc1cc(=O)oc2cc(O)ccc12` | CP260 | 6310 | inhibitor, single point |
| `Cc1cc(=O)oc2cc(O)ccc12` | ICS | 3981 | inhibitor, single point |
| `Cc1cc(=O)oc2cc(O)ccc12` | Dd2 | 1585 | inhibitor, single point |
| `Cc1cc(=O)oc2cc(O)ccc12` | CP297 | 7.2 | inhibitor, full curve, poor fit |
| `Cc1cc(=O)oc2cc(O)ccc12` | C2A | 1585 | inhibitor, single point |
| `Cc1cc(=O)oc2cc(O)ccc12` | HB3 | 1585 | inhibitor, single point |
| `Cc1cc(=O)oc2cc(O)ccc12` | PC26 | 5103 | inhibitor, partial curve, poor fit |
| `Cc1cc(=O)oc2cc(O)ccc12` | TAB109 | 1585 | inhibitor, single point |
| `Cc1cc(=O)oc2cc(O)ccc12` | ECU | 1259 | inhibitor, single point |
| `Cc1cc(=O)oc2cc(O)ccc12` | CP252 | 1259 | inhibitor, single point |
| `Cc1cc(=O)oc2cc(O)ccc12` | 3D7 | 10000 | inhibitor, single point |
| `O=[N+]([O-])c1cccc(S(=O)(=O)NCCNS(=O)(=O)c2cccc([N+](=O)[O-])c2)c1` | DIV14 | 15101 | inhibitor, single point |
| `O=[N+]([O-])c1cccc(S(=O)(=O)NCCNS(=O)(=O)c2cccc([N+](=O)[O-])c2)c1` | DIV17 | 15101 | inhibitor, single point |
| `O=[N+]([O-])c1cccc(S(=O)(=O)NCCNS(=O)(=O)c2cccc([N+](=O)[O-])c2)c1` | CP203 | 21331 | inhibitor, single point |
| `O=[N+]([O-])c1cccc(S(=O)(=O)NCCNS(=O)(=O)c2cccc([N+](=O)[O-])c2)c1` | ICS | 1122 | inhibitor, partial curve |
| `O=[N+]([O-])c1cccc(S(=O)(=O)NCCNS(=O)(=O)c2cccc([N+](=O)[O-])c2)c1` | PAD | 8912 | inhibitor, single point |
| `O=[N+]([O-])c1cccc(S(=O)(=O)NCCNS(=O)(=O)c2cccc([N+](=O)[O-])c2)c1` | AA1029 | 17782 | inhibitor, single point |
| `O=[N+]([O-])c1cccc(S(=O)(=O)NCCNS(=O)(=O)c2cccc([N+](=O)[O-])c2)c1` | CP335 | 19011 | inhibitor, single point |
| `O=[N+]([O-])c1cccc(S(=O)(=O)NCCNS(=O)(=O)c2cccc([N+](=O)[O-])c2)c1` | TAB165 | 17782 | inhibitor, single point |
| `O=[N+]([O-])c1cccc(S(=O)(=O)NCCNS(=O)(=O)c2cccc([N+](=O)[O-])c2)c1` | GB4 | 19011 | inhibitor, single point |
| `O=[N+]([O-])c1cccc(S(=O)(=O)NCCNS(=O)(=O)c2cccc([N+](=O)[O-])c2)c1` | PC15 | 10000 | inhibitor, single point |
| `O=[N+]([O-])c1cccc(S(=O)(=O)NCCNS(=O)(=O)c2cccc([N+](=O)[O-])c2)c1` | 7G8 | 10000 | inhibitor, single point |
| `O=[N+]([O-])c1cccc(S(=O)(=O)NCCNS(=O)(=O)c2cccc([N+](=O)[O-])c2)c1` | CP191 | 17782 | inhibitor, single point |
| `O=[N+]([O-])c1cccc(S(=O)(=O)NCCNS(=O)(=O)c2cccc([N+](=O)[O-])c2)c1` | CP305 | 19011 | inhibitor, single point |
| `O=[N+]([O-])c1cccc(S(=O)(=O)NCCNS(=O)(=O)c2cccc([N+](=O)[O-])c2)c1` | TAB109 | 2239 | inhibitor, full curve |
| `O=[N+]([O-])c1cccc(S(=O)(=O)NCCNS(=O)(=O)c2cccc([N+](=O)[O-])c2)c1` | AS120 | 17782 | inhibitor, single point |
| `O=[N+]([O-])c1cccc(S(=O)(=O)NCCNS(=O)(=O)c2cccc([N+](=O)[O-])c2)c1` | parasite line B | 15848 | inhibitor, single point |
| `O=[N+]([O-])c1cccc(S(=O)(=O)NCCNS(=O)(=O)c2cccc([N+](=O)[O-])c2)c1` | W2 | 16944 | inhibitor, single point |
| `O=[N+]([O-])c1cccc(S(=O)(=O)NCCNS(=O)(=O)c2cccc([N+](=O)[O-])c2)c1` | CP268 | 21331 | inhibitor, single point |
| `O=[N+]([O-])c1cccc(S(=O)(=O)NCCNS(=O)(=O)c2cccc([N+](=O)[O-])c2)c1` | CP286 | 11220 | inhibitor, single point |
| `O=[N+]([O-])c1cccc(S(=O)(=O)NCCNS(=O)(=O)c2cccc([N+](=O)[O-])c2)c1` | CP262 | 19011 | inhibitor, partial curve, poor fit |
| `O=[N+]([O-])c1cccc(S(=O)(=O)NCCNS(=O)(=O)c2cccc([N+](=O)[O-])c2)c1` | CP260 | 17782 | inhibitor, single point |
| `O=[N+]([O-])c1cccc(S(=O)(=O)NCCNS(=O)(=O)c2cccc([N+](=O)[O-])c2)c1` | PC26 | 13459 | inhibitor, single point |
| `O=[N+]([O-])c1cccc(S(=O)(=O)NCCNS(=O)(=O)c2cccc([N+](=O)[O-])c2)c1` | ECU | 17782 | inhibitor, single point |
| `O=[N+]([O-])c1cccc(S(=O)(=O)NCCNS(=O)(=O)c2cccc([N+](=O)[O-])c2)c1` | CP269 | 13459 | inhibitor, single point |
| `O=[N+]([O-])c1cccc(S(=O)(=O)NCCNS(=O)(=O)c2cccc([N+](=O)[O-])c2)c1` | CP237 | 15848 | inhibitor, partial curve, poor fit |
| `c1ccc2sc(SN3CCOCC3)nc2c1` | ECU | 12589 | inhibitor, single point |
| `c1ccc2sc(SN3CCOCC3)nc2c1` | P93_24 | 11220 | inhibitor, single point |
| `c1ccc2sc(SN3CCOCC3)nc2c1` | N140 | 11220 | inhibitor, single point |
| `c1ccc2sc(SN3CCOCC3)nc2c1` | DIV14 | 11995 | inhibitor, single point |
| `c1ccc2sc(SN3CCOCC3)nc2c1` | DIV17 | 19011 | inhibitor, single point |
| `c1ccc2sc(SN3CCOCC3)nc2c1` | W2 | 16944 | inhibitor, single point |
| `c1ccc2sc(SN3CCOCC3)nc2c1` | Dd2 | 12589 | inhibitor, single point |
| `c1ccc2sc(SN3CCOCC3)nc2c1` | TAB165 | 10000 | inhibitor, single point |

Some entries from above, unchanged:

| SMILES | tested on / at | Potency (nM) | curve as filed |
|---|---|---|---|
| `Cc1cc(=O)oc2cc(O)ccc12` | TAB109 | 1585 | inhibitor, single point |
| `Cc1cc(=O)oc2cc(O)ccc12` | AS120 | 1585 | inhibitor, single point |
| `O=[N+]([O-])c1cccc(S(=O)(=O)NCCNS(=O)(=O)c2cccc([N+](=O)[O-])c2)c1` | TAB165 | 17782 | inhibitor, single point |
| `O=[N+]([O-])c1cccc(S(=O)(=O)NCCNS(=O)(=O)c2cccc([N+](=O)[O-])c2)c1` | CP305 | 19011 | inhibitor, single point |

The results are deposited in PubChem (AID504749; NCATS, 2011).